Drawing on PubChem BioAssay AID274 (DTP/NCI, 2004), this text covers survivor count and T/C for 24 compounds.

The list does not hold the whole screen: it is rich in T/C values a quarter to a half above the control, in often repeated tests (any T/C) and in doses without a T/C. Further doses and runs are listed elsewhere. T/C: endpoint of the treated group in % of that of the vehicle group. Some doses have a count of surviving animals in place of a T/C: the source holds a T/C of zero for them, seemingly a mark for toxic or unscored doses. Some survivor counts are full or nearly so, which does not show that the dose was tolerated: survival well below the control is almost never listed, so the zero probably covers shortened survival too. Survivors were counted at the toxicity check, usually on the fifth day, unless a day is given; later deaths do not show. Schedule codes are those of the source, read here as Q, the interval in days (D) or hours (H), X, the number of doses. Some entries hold several experiments; the results are listed from low to high. For survival time, this PubChem deposit counts one and a half times the control or more as active, and values a quarter to a half above the control carry no call in these data; other NCI protocols may use other cut-offs. Some T/C values carry the count of animals alive at the toxicity check (mostly the fifth day); without a count, all were alive then. Numbered stars: 1 amine (or outer) side, 2 acyl side, 3 side chain; on linkers, the order of the positions; unused ones are H or OH. Bridge positions count the residues as written; N and C are the ends. Square brackets hold non-standard residues; d marks the D form. Peptide text beside a SMILES is read from it. I, II: the chains in the order shown. Actinocin(9to1) = Cc1c2oc3c(C)ccc(C(=O)[*:1])c3nc-2c(C(=O)[*:2])c(N)c1=O; aThr = C[C@H](O)[C@H](N)C(=O)O; NMeV = CN[C@H](C(=O)O)C(C)C; Sar = CNCC(=O)O

The test deals with BDF1 mice, Lewis lung carcinoma iv, survival T/C. In words: NCI In Vivo Anticancer Drug Screen. Data for tumor model Lewis Lung Carcinoma (intravenous) in B6D2F1 (BDF1) mice. Particulars: T/C endpoint: median survival time, higher T/C = longer survival. Here is the method: The antitumor activity of compounds was measured in mice bearing transplantable tumors. Survival or tumor size were measured and the results are expressed as the measurement made in the treated group (T) divided by the measurement made in the vehicle treated control group (C). The tumor model used in this assay is Lewis Lung Carcinoma (intravenous) in B6D2F1 (BDF1) mice

The mark [1] stands for this setting: dose: 100.0 mg/kg/injection, schedule: Q01DX009 (ip), vehicle: Klucel (hydroxypropylcellulose) (HPC).
Where [2] appears, read: dose: 4.0 mg/kg/injection, schedule: Q01DX009 (ip), vehicle: saline.
The mark [3] stands for this setting: dose: 32.0 mg/kg/injection, schedule: Q01DX009 (ip), vehicle: saline.
Where [4] appears, read: dose: 64.0 mg/kg/injection, schedule: Q01DX009 (ip), vehicle: saline.
The mark [5] stands for this setting: dose: 128.0 mg/kg/injection, schedule: Q01DX009 (ip), vehicle: saline.
The mark [6] stands for this setting: dose: 200.0 mg/kg/injection, schedule: Q01DX009 (ip), vehicle: saline.
The mark [7] stands for this setting: dose: 100.0 mg/kg/injection, schedule: Q01DX009 (ip), vehicle: saline with Tween-80.
Setting [8] is: dose: 200.0 mg/kg/injection, schedule: Q01DX009 (ip), vehicle: Klucel (hydroxypropylcellulose) (HPC).
Setting [9] is: dose: 25.0 mg/kg/injection, schedule: Q01DX009 (ip), vehicle: saline with Tween-80.
The mark [10] stands for this setting: dose: 50.0 mg/kg/injection, schedule: Q01DX009 (ip), vehicle: saline with Tween-80.

In the case of `Cc1c2cc[n+](CCN3CCCCC3)cc2c(C)c2c1[nH]c1ccc(O)cc12`, the survivor count (dose: 50.0 mg/kg/injection, schedule: Q01DX009 (ip), vehicle: suspension in saline) is on record as 10 of 10.

`CCCC(=O)OCC1OC(n2cnc3c(=S)nc(N)[nH]c32)C(OC(=O)CCC)C1OC(=O)CCC` (stereo not given): the survivor count is, setting by setting: (dose: 12.5 mg/kg/injection, schedule: Q01DX009 (ip), vehicle: Klucel (hydroxypropylcellulose) (HPC)) 10 of 10; (dose: 25.0 mg/kg/injection, schedule: Q01DX009 (ip), vehicle: Klucel (hydroxypropylcellulose) (HPC)) 10 of 10; (dose: 50.0 mg/kg/injection, schedule: Q01DX009 (ip), vehicle: Klucel (hydroxypropylcellulose) (HPC)) 10 of 10; under setting [1], 10 of 10.

For `CC1OC(O[C@H]2/C=C/C=C/C=C/C=C/C=C/C=C/C=C/[C@H](C)[C@@H](O)[C@@H](C)[C@H](C)OC(=O)C[C@H](O)C[C@H](O)CC[C@@H](O)[C@H](O)C[C@H](O)C[C@]3(O)C[C@H](O)[C@@H](C(=O)O)[C@H](C2)O3)C(O)C(N)C1O` (stereo not given in full), the T/C under setting [2] is 149 % of control. For the same compound, the survivor count is given as 3 of 10 under setting [3], 0 of 10 under setting [4] and 0 of 10 under setting [5].

As to `C=CC(=O)NCNC(=O)C=C`, the survivor count is 0 of 10 and 6 of 10 under setting [6]; 0 of 10 (dose: 400.0 mg/kg/injection, schedule: Q01DX009 (ip), vehicle: saline).

With `CC1CN1C(=O)NCCCCCCNC(=O)N1CC1C` (stereo not given), the T/C (dose: 5.0 mg/kg/injection, schedule: Q01DX009 (ip), vehicle: saline + alcohol) is 130 % of control and the T/C (dose: 10.0 mg/kg/injection, schedule: Q01DX009 (ip), vehicle: saline + alcohol) is 141 % of control. Further, the survivor count by setting is: (dose: 20.0 mg/kg/injection, schedule: Q01DX009 (ip), vehicle: saline + alcohol) 10 of 10; (dose: 40.0 mg/kg/injection, schedule: Q01DX009 (ip), vehicle: saline + alcohol) 7 of 10.

For the compound `Nc1nc(=S)c2ncn(C3OC(CO)CC3O)c2[nH]1` (stereo not given), where the note is “dose: 40.0 mg/kg/injection, schedule: Q01DX009 (ip), vehicle: saline”, the survivor count is reported as 10 of 10.

With `CCC1CN2C(=N1)c1ccccc1-c1cc(Cl)ccc12` (stereo not given), the T/C (dose: 12.5 mg/kg/injection, schedule: Q01DX009 (ip), vehicle: saline with Tween-80) was 132 % of control. Further, under setting [7], the survivor count is given as 1 of 10.

Turning to `CCCCCCCCCCCCCCCCCCCCCC(=O)Nc1ccn(C2OC(CO)C(O)C2O)c(=O)n1` (stereo not given), the T/C is 149 % of control (dose: 400.0 mg/kg/injection, schedule: Q01DX009 (ip), vehicle: saline with Tween-80) and 132 % of control (dose: 600.0 mg/kg/injection, schedule: Q01DX009 (ip), vehicle: saline with Tween-80).

`COc1cccc2c1C(=O)c1c(O)c3c(c(O)c1C2=O)C[C@@](O)(/C(C)=N\O)C[C@@H]3OC1CC(N)C(O)C(C)O1` (stereo not given in full): the survivor count is on record as 10 of 10 (dose: 25.0 mg/kg/injection, schedule: Q01DX009 (ip), vehicle: water) and 7 of 10 (dose: 50.0 mg/kg/injection, schedule: Q01DX009 (ip), vehicle: water).

Regarding `c1nc(N2CC2)c2cnn(C3CCCCO3)c2n1` (stereo not given), the survivor count under setting [8] is listed as 3 of 10.

Regarding `O=C(NO)c1ccc(O)c(O)c1`, the T/C (dose: 400.0 mg/kg/injection, schedule: Q01DX009 (ip), vehicle: water) was 131 % of control. Moreover, the survivor count is given as 6 of 10 (dose: 600.0 mg/kg/injection, schedule: Q01DX009 (ip), vehicle: suspension in saline) and 4 of 10 (dose: 800.0 mg/kg/injection, schedule: Q01DX009 (ip), vehicle: water).

Consider `COC1=C(NC(C)=O)C(=O)c2nc(-c3nc(C(=O)O)c(C)c(-c4ccc(OC)c(OC)c4O)c3N)ccc2C1=O`, for which the survivor count is 10 of 10 under setting [1] and 0 of 10 under setting [8].

For the compound `N/C(=N\O)c1cn(C2OC(CO)C(O)C2O)c2ncnc(N)c12` (stereo not given), the T/C under setting [2] is 137 % of control. The survivor count was 10 of 10 (dose: 8.0 mg/kg/injection, schedule: Q01DX009 (ip), vehicle: saline); 9 of 10 (dose: 16.0 mg/kg/injection, schedule: Q01DX009 (ip), vehicle: saline); 0 of 10 under setting [3]; 0 of 10 under setting [4]; 0 of 10 under setting [5].

For `CCC/C=C/C=C/C(=O)OC1/C(=C/C(=O)OC)CC2CC(C(C)O)OC(=O)CC(O)CC3CC(OC(C)=O)C(C)(C)C(O)(CC4C/C(=C/C(=O)OC)CC(/C=C/C(C)(C)C1(O)O2)O4)O3` (stereo not given), the survivor count is given as 8 of 10 (dose: 150.0 micrograms/kg/injection, schedule: Q01DX009 (ip), vehicle: saline + alcohol) and 4 of 10 (dose: 300.0 micrograms/kg/injection, schedule: Q01DX009 (ip), vehicle: saline + alcohol).

Regarding `O=c1cc(CCl)[nH]nc1CCl`, the survivor count runs as follows: under setting [9], 10 of 10; under setting [10], 3 of 10; under setting [7], 0 of 10.

Regarding `O=[N+]([O-])c1ccc(Sc2ccncn2)c([N+](=O)[O-])c1`, for the setting “dose: 200.0 mg/kg/injection, schedule: Q01DX009 (ip), vehicle: saline with Tween-80”, the survivor count was 3 of 10.

`N=C(N)SCc1cccc2c(=O)cc(-c3ccccc3)oc12`: the survivor count is, setting by setting: under setting [1], 9 of 10; under setting [8], 3 of 10; under setting [6], 10 of 10.

As for `Cc1c2oc3c(C)ccc(C(=O)N[C@@H]4C(=O)N[C@H](C(C)C)C(=O)N5CCC[C@H]5C(=O)N(C)CC(=O)N(C)[C@@H](C(C)C)C(=O)O[C@H]4C)c3nc-2c(C(=O)N[C@@H]2C(=O)N[C@H](C(C)C)C(=O)N3CCC[C@H]3C(=O)N(C)CC(=O)N(C)[C@@H](C(C)C)C(=O)O[C@H]2C)c(N)c1=O` (I: [aThr][dV]P[Sar][NMeV] / II: [aThr][dV]P[Sar][NMeV]; ester I:1-I:C, II:1-II:C; linker I:N-II:N via Actinocin(9to1)), the survivor count (dose: 500.0 micrograms/kg/injection, schedule: Q04DX003 (ip), vehicle: saline + alcohol) is listed as 8 of 8; the survivor count (dose: 720.0 micrograms/kg/injection, schedule: Q01DX001 (ip), vehicle: saline + alcohol) is reported as 3 of 8; the survivor count (dose: 1200.0 micrograms/kg/injection, schedule: Q01DX001 (ip), vehicle: saline + alcohol) is recorded as 0 of 8.

For the compound `O=C(NCCN1CC1)C(=O)NCCN1CC1`, the survivor count (dose: 6.0 mg/kg/injection, schedule: Q01DX009 (ip), vehicle: saline) is recorded as 10 of 10.

With `CN(C)CCNc1ccc([N+](=O)[O-])c2sc3ccccc3c(=O)c12`, the T/C under setting [9] is 132 % of control. Moreover, the survivor count under setting [10] is on record as 9 of 10.

With `Nc1nc(=S)c2ncn(C3OC(COC(=O)c4ccc(Cl)cc4)C(OC(=O)c4ccc(Cl)cc4)C3OC(=O)c3ccc(Cl)cc3)c2[nH]1` (stereo not given), the T/C (dose: 75.0 mg/kg/injection, schedule: Q01DX009 (ip), vehicle: Klucel (hydroxypropylcellulose) (HPC)) was 125 % of control.

Turning to `CC[C@H]1CN2CCc3cc(OC)c(OC)cc3[C@@H]2C[C@@H]1C[C@H]1NCCc2cc(O)c(OC)cc21`, the survivor count under setting [3] is recorded as 6 of 10.

Consider `O=CC(O)C(O)C(O)C(O)C(=O)O.[NH-]C1CCCCC1[NH-].[Pt+2]` (stereo not given), for which, where the note is “dose: 3.12 mg/kg/injection, schedule: Q01DX009 (ip), vehicle: suspension in saline”, the T/C was 125 % of control.

As to `NC(Cc1ccc(N(CCCl)CCCl)cc1)C(=O)O` (stereo not given), the T/C (dose: 4.0 mg/kg/injection, schedule: Q01DX009 (ip), vehicle: Klucel (hydroxypropylcellulose) (HPC)) was 130 % of control [7 of 10 alive]. For the same compound, the survivor count runs as follows: (dose: 8.0 mg/kg/injection, schedule: Q01DX009 (ip), vehicle: Klucel (hydroxypropylcellulose) (HPC)) 10 of 10; (dose: 16.0 mg/kg/injection, schedule: Q01DX009 (ip), vehicle: Klucel (hydroxypropylcellulose) (HPC)) 10 of 10.
